The results in this text go back to paper PMC4014424.

These are yes or no findings as the source states them, for the method shown. Binding seen in cells or lysates may run through a third protein. Some entries that bind do so weakly or less than the wild type. Tags and fused reporters may be left off the sequences shown.

This experiment deals with T1, biotin-tagged TR4 (orphan nuclear receptor TR4, NR2C2) (UniProt P49117).
T1 sequence (chain, biotin on the biotin recognition sequence (by birA biotin ligase)): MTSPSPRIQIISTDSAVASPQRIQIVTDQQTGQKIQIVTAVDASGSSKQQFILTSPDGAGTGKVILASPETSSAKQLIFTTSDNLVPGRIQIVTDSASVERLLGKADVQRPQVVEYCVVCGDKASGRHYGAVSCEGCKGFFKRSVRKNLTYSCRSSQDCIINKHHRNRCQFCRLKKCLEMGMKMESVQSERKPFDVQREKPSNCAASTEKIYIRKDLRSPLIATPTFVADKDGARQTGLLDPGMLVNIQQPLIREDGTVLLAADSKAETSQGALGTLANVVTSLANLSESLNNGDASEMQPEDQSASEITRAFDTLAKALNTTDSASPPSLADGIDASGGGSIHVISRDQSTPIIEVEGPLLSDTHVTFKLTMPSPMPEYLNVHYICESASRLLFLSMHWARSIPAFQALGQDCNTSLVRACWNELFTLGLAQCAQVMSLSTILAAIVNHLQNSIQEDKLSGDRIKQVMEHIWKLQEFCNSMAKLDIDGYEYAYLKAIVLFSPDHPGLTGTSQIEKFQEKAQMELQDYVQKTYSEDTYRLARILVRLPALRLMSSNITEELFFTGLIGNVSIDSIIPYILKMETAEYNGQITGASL
Put plainly: pull-down; streptavidin beads incubated overnight at 4°C with nuclear extracts of MEL cells expressing birA with or without (control) biotin-tagged TR4; washed with PBS plus 0.5% Tween20 and 1X Laemmli sample buffer; bound proteins immunoblotted.

B1: TR2 (orphan nuclear receptor TR2, NR2C1) (protein, UniProt Q505F1 1-590)
chain: MATIEEIAHQIIDQQMGEIVTEQQTGQKIQIVTALDHSTQGKQFILANHEGSTPGKVFLTTPDAAGVNQLFFTSPDLSAPHLQLLTEKSPDQGPNKVFDLCVVCGDKASGRHYGAITCEGCKGFFKRSIRKNLVYSCRGSKDCVINKHHRNRCQYCRLQRCIAFGMKQDSVQCERKPIEVSREKSSNCAASTEKIYIRKDLRSPLAATPTFVTDSETARSAGLLDSGMFVNIHPSGIKTEPAMLMAPDKAESCQGDLSTLASVVTSLANLGKAKDLSHCGGDMPVVQSLRNGDTSFGAFHHDIQTNGDVSRAFDTLAKALTPGESSACQSPEEGMEGSPHLIAGEPSFVEKEGPLLSESHVAFRLTMPSPMPEYLNVHYIGESASRLLFLSMHWALSIPSFQALGQENSISLVKAYWNELFTLGLAQCWQVMNVATILATFVNCLHSSLQQDKMSPERRKSLMEHIFKLQEFCNSMVKLCIDGHEYAYLKAIVLFSPDHPGLENMELIERFQEKAYVEFQDYITRTYPDDTYRLSRLLLRLPALRLMNATITEELFFKGLIGNVRIDSVIPHILKMEPADYNSQIIGHSL
Take B1: the binding result was “binds”.
